The full ranking holds about 33,000 sequences; the median of “E-score (-0.5 to 0.5)” is about -0.0014, and the highest 2% start at about 0.25. The list shows a part of the results.
Molecular target: T1, Cad1 (UniProt P24813)
T1 sequence: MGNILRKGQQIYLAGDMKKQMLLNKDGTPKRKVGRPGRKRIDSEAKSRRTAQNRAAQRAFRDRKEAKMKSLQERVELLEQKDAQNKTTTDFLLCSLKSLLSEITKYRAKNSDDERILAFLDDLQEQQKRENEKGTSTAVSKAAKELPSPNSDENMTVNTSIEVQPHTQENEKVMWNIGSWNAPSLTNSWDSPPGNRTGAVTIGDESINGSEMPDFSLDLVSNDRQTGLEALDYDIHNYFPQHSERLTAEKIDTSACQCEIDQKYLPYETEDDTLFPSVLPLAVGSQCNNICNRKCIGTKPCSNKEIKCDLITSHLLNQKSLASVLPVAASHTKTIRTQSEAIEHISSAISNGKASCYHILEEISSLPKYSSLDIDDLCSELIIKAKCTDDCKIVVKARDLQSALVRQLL
Experiment: PBM E-score (8-mer binding enrichment) (E-score (-0.5 to 0.5)); higher = stronger / more preferred TF binding
Settings: protein concentration: 100 nM; construct: GST-full length
Procedure, shortened: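 For each ungapped eight-base word taken together with its reverse complement, the Universal PBM Analysis Suite assigned an E-score. Binding data came from GST-tagged yeast transcription factors, applied at about 100-200 nM, on universal all-10-mer Agilent arrays made double-stranded by primer extension. Fluorescent anti-GST marked bound protein, and scans were normalised with masliner.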

Row | Sequence | PBM E-score
1 | ACTTCCAG | -0.224
2 | AGTAGCCG | 0.00943
3 | CCCGCGCC | -0.118
4 | AGTGATAG | -0.0273
5 | TGCACGAA | 0.15
6 | TCAAAAAA | -0.00687
7 | TCAGTGGA | -0.149
8 | CCAGCCGG | -0.0587
9 | ACAAACGA | 0.0882
10 | ATCTGCAT | 0.174
11 | ACTGTTAT | 0.156
12 | AAGTAACT | -0.0701
13 | CGAAATCA | 0.306
14 | CGAGAAGA | -0.081
15 | ATCGACCG | -0.0243
16 | CGAGTTGC | 0.203
17 | GCCTCACA | 0.0301
18 | ATCGCGAA | 0.243
19 | CTGGGCGA | -0.176
20 | AAGGCGAT | -0.0261
21 | GATAATCA | 0.169
22 | ATGTGAAG | 0.0915

Row | Sequence | PBM E-score
23 | AATTGAAA | 0.133
24 | TGTAGTAA | 0.145
25 | CATCATTC | 0.0927
26 | CCAGAATC | 0.0559
27 | GCTCTAAC | -0.137
28 | ATTCTGAC | 0.00765
29 | CACTGAGG | -0.118
30 | CATGGGGC | -0.0704
31 | GCAGCCAA | 0.0102
32 | CAGAAGTA | 0.0907
33 | CTCGGCTC | -0.0411
34 | TCAACCCA | 0.00685
35 | AGGTAAGC | 0.102
36 | ATGAGTGA | 0.0719
37 | CTCGCTAC | -0.142
38 | CCAAGGGG | -0.115
39 | GATAGTGA | 0.157
40 | AAGATGAG | -0.147
41 | GAGCTAGC | 0.137
42 | AAGAGCAC | 0.0293
43 | CCACGCGA | 0.038
44 | GAGCCATA | -0.0447

Four entries from above, as a markdown table.

| Row | Sequence | PBM E-score |
| --- | --- | --- |
| 36 | ATGAGTGA | 0.0719 |
| 38 | CCAAGGGG | -0.115 |
| 40 | AAGATGAG | -0.147 |
| 42 | AAGAGCAC | 0.0293 |

Remaining list, next part:

Row | Sequence | PBM E-score
45 | AAACCATA | -0.0247
46 | CGTGTCGC | 0.0209
47 | CACACTGG | 0.0121
48 | AGAAGCGA | -0.0529
49 | CAATCAGA | -0.227
50 | ACAGTCAG | 0.124
51 | CACCAACC | 0.0405
52 | ACAATTAA | 0.148
53 | CATGGATA | 0.0404
54 | GCGAAAAC | -0.0371
55 | AACACTTA | -0.0762
56 | AATAACGT | 0.112
57 | CGGGAGTC | 0.0153
58 | CGTTAACA | 0.198
59 | ATAACAGG | -0.0342
60 | ACTTTACT | 0.0633
61 | ACGGAGCA | -0.0644
62 | GAGATCGA | 0.0874
63 | GCTGACCC | -0.145
64 | ACGATCAA | 0.00497
65 | CAACTGGC | -0.089
66 | CCTCCACC | -0.282

Row | Sequence | PBM E-score
67 | TAGTAGAA | 0.0754
68 | ATTGTAGA | 0.0701
69 | GGGCTTAA | -0.0694
70 | GCGGCGAA | -0.0495
71 | AGGGTAGG | -0.015
72 | AGTGGTTA | -0.0534
73 | CCATACGC | 0.0527
74 | AAGCCTTA | -0.116
75 | AAAGACTG | -0.16
76 | GTCGTGCA | 0.0244
77 | AGTTATTC | 0.116
78 | ATACAGTG | 0.0241
79 | ACTTGGTA | 0.0965
80 | CTGGGGAC | -0.367
81 | GGGGTACC | -0.38
82 | ATTTACCG | 0.0146
83 | GTCCGGTA | -0.0206
84 | CGTATTTC | 0.162
85 | CATATGCG | 0.0103
86 | AACCTCAA | -0.0446

Source: the supplement of paper PMC3334620
